Measured values: patent publication US20250213691A1
No constants are given. Whether binding was seen depends on the method and setting. Some results given as binding are weak or reduced against the parent protein; the word gives no strength. For some assays here: Where a sequence is shown, tags or fusion partners need not be part of it.

Sequences of proteins named here, by UniProt entry; tags and fusion partners are left off. A change or cut given only in a name is not applied to a line headed by its entry. A line that says so, or that is headed by a name, gives the form on record, which may keep a tag or linker.
MSLN-His (Q13421, form named): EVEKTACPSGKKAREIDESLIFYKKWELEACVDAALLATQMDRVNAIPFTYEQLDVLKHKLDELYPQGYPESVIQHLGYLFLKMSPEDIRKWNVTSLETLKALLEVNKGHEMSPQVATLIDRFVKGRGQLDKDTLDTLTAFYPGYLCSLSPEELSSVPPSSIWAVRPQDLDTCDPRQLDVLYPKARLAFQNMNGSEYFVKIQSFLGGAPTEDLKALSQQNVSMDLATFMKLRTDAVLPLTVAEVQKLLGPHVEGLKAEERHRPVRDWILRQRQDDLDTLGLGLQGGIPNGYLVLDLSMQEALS

B1: P4 (positive antibody) (antibody, V domains shown)
VH: QVQLQQSGPGLVTPSQTLSLTCAISGDSVSSNSATWNWIRQSPSRGLEWLGRTYYRSKWYNDYAVSVKSRMSINPDTSKNQFSLQLNSVTPEDTAVYYCARGMMTYYYGMDVWGQGTTVTVSS
VL: QPVLTQSSSLSASPGASASLTCTLRSGINVGPYRIYWYQQKPGSPPQYLLNYKSDSDKQQGSGVPSRFSGSKDASANAGVLLISGLRSEDEADYYCMIWHSSAAVFGGGTQLTVLS
B2: MSLN 41 VHH-Fc fusion protein (Fc fusion, not shown: a dimerising Fc or GST)
chain: EVQLVESGGGLVQPGGSLRLSCAASGRTFSYNAMGWFRQAPGKGRELVAAITWRGGYTYYPDSVEGRFTISRDNAKRMVYLQMNSLRAEDTAVYYCAAATARVYADDSYLNESGYDYWGQGTQVTVSS
B3: MSLN 42 VHH-Fc fusion protein (Fc fusion, not shown: a dimerising Fc or GST)
chain: EVQLVESGGGLVQPGGSLRLSCAASGRTLSSNVMGWFRQAPGKGRELVAAITPRGSGTYYPDSVEGRFTISRDNAKRMVYLQMNSLRAEDTAVYYCAARFAPDPAFSVYWSENYYDYWGQGTQVTVSS
B4: MSLN 3 VHH-Fc fusion protein (Fc fusion, not shown: a dimerising Fc or GST)
chain: EVQLVESGGGLVQPGGSLRLSCAASGNTLSRYNMGWFRQAPGKGRELVAYISWRGGSTYYPDSVEGRFTISRDNAKRMVYLQMNSLRAEDTAVYYCAASIKTADPDDYDYWGQGTQVTVSS
B5: MSLN 10 VHH-Fc fusion protein (Fc fusion, not shown: a dimerising Fc or GST)
chain: EVQLVESGGGLVQPGGSLRLSCAASGDTLSTYAMGWFRQAPGKGRELVAGITSSGSGTYYPDSVEGRFTISRDNAKRMVYLQMNSLRAEDTAVYYCAARRIGPVYDPYSVYNYWGQGTQVTVSS
B6: MSLN 16 VHH-Fc fusion protein (Fc fusion, not shown: a dimerising Fc or GST)
chain: EVQLVESGGGLVQPGGSLRLSCAASGRILSNYNMGWFRQAPGKGRELVAYISWGGSRTYYPDSVEGRFTISRDNAKRMVYLQMNSLRAEDTAVYYCAATINSASDYDYWGQGTQVTVSS
B7: MSLN 27 VHH-Fc fusion protein (Fc fusion, not shown: a dimerising Fc or GST)
chain: EVQLVESGGGLVQPGGSLRLSCAASGLIFSTNAMGWFRQAPGKGRELVAAISWRGGYTYYPDSVEGRFTISRDNAKRMVYLQMNSLRAEDTAVYYCAAGTARIDYLSQDGYNYWGQGTQVTVSS
B8: MSLN 36 VHH-Fc fusion protein (Fc fusion, not shown: a dimerising Fc or GST)
chain: EVQLVESGGGLVQPGGSLRLSCAASGITFSNYVMGWFRQAPGKGRELVAAITASGGNTYYPDSVEGRFTISRDNAKRMVYLQMNSLRAEDTAVYYCAAKRAYWGSDGDYQGYYYYDYWGQGTQVTVSS

Each binder was assayed against MSLN-His (human) (UniProt Q13421) (assay: ELISA on MSLN, positive control).

Binder	binding
B1	binds

What follows are binders tested against MSLN-His (human) (UniProt Q13421) (assay: ELISA, VHH-Fc fusion protein on MSLN).

Binder	binding
B2	binds
B3	binds
B4	binds
B5	binds
B6	binds
B7	binds
B8	binds
